The results in this text go back to paper PMC6925144, “A prospective compound screening contest identified broader inhibitors for Sirtuin 1” (Scientific Reports, 2019).

Protein sequences, listed by entry. Tags and fused reporters are not part of them. Residues count along the entry.
UniProt Q96EB6, 2-747 limits assumed: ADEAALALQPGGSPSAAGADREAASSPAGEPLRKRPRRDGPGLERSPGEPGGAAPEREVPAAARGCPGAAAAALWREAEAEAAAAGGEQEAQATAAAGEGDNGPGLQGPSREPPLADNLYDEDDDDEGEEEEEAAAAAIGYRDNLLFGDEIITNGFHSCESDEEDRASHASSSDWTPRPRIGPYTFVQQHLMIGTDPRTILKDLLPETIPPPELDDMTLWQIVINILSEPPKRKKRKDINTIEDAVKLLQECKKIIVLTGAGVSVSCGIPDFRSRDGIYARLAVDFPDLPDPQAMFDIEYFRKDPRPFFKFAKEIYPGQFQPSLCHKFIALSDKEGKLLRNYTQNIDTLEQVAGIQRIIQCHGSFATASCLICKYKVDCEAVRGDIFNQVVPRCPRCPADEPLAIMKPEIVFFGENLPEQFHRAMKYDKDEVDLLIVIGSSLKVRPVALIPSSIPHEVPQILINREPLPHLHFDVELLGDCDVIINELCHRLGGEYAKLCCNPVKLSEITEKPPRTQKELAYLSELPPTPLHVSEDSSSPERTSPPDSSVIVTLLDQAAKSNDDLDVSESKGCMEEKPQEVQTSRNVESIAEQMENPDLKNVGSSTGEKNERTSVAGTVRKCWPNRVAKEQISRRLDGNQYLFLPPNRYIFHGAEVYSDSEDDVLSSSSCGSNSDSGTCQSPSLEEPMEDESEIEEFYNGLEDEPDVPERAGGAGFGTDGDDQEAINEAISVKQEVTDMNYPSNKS

Over roughly 3,200 compounds, “TSA(with NAD+) / Primary screening (TSA) / delta Tm (K)” has its median near -0.04; the highest 2% begin near 0.37. This is one part of the list.

The target in this assay is NAD-dependent deacetylase Sirtuin 1 (human, UniProt Q96EB6). The experiment in a line: primary screen, delta tm. More on the design: single well (n = 1, as 'the same TSA'). The conditions noted are these: 10 µM.
Consider `O=c1n(CCCc2nc3ccccc3o2)nc2ccccn12`, for which the “TSA(with NAD+) / Primary screening (TSA) / delta Tm (K)” value was -0.05 K.
To `CCOC(=O)c1c(NC(=O)C(C)OC(=O)c2cccc(S(=O)(=O)N3CCCC3)c2)sc2c1CCC(C)C2` (centres unmarked) belongs -0.08 K; to `Cc1ccc(N(C)S(=O)(=O)c2cccc(C(=O)Nc3cc(S(C)(=O)=O)ccc3C)c2)cc1`, -0.05 K; to `O=C(Nc1ccc(NC(=O)c2[nH]c3ccccc3c2Cl)cc1)NC1CC1`, 0.16 K.
In the case of `COc1ccccc1CNC(=O)COC(=O)c1ccccc1SCC(=O)NC12CC3CC(CC(C3)C1)C2` it was -0.19 K; in that of `Clc1ncnc2c1nnn2-c1ccccc1`, -0.09 K; in that of `NC(CC(=O)O)C(=O)O` (centres unmarked), -0.03 K.
In the case of `O=c1scnn1Cc1ncn(-c2ccccc2)n1` it was -0.09 K; in that of `CC(NC(=O)c1ccc2c(c1)CCC2)c1ncc[nH]1` (centres unmarked), -0.16 K; in that of `Cc1ccc(C=C2C(=O)NC(=S)NC2=O)o1`, -0.19 K.
Consider `Cn1c(=O)[nH]c(=O)c2nc(CC(O)c3cc4ccccc4o3)c(O)nc21` (centres unmarked), for which the “TSA(with NAD+) / Primary screening (TSA) / delta Tm (K)” value is -0.22 K.
To `Cc1cccn2c(=O)cc(COc3cccc4c3CCCC4O)nc12` (centres unmarked) belongs -0.13 K; to `Cc1ccc(C)c(OCCSc2nnc(-c3cccnc3)n2N)c1`, -0.04 K.
Consider `COc1ccc(NC(=O)c2cccc(C(N)=O)c2)cc1OCc1cccnc1`, for which the “TSA(with NAD+) / Primary screening (TSA) / delta Tm (K)” value is -0.26 K.
Take `CC(N)CCCCN` (centres unmarked): the “TSA(with NAD+) / Primary screening (TSA) / delta Tm (K)” value is recorded as -0.26 K.
To `CN(CC1COc2ccccc2O1)C(=O)CSc1nnc(-c2ccccc2Cl)n1C1CCCC1` (centres unmarked) belongs 0.06 K; to `Cn1ccnc1SCc1c(C(=O)O)oc2ccccc12`, -0.01 K; to `CN(c1ccccc1)S(=O)(=O)c1cccc(C(=O)OCc2ccccc2C#N)c1`, -0.11 K.
To `Cc1ccc(-c2csc3ncn(CC(=O)NC(=O)Nc4ccc5c(c4)OCCO5)c(=O)c23)s1` belongs 0.17 K; to `CC(=O)NC12CC3CC(C1)CC(C(=O)Oc1ccc(N(C)S(=O)(=O)c4cc(C)ccc4C)cc1)(C3)C2`, -0.18 K.
In the case of `COc1ccccc1CNC(=O)C(Sc1ccccc1)c1ccccc1` (centres unmarked) it was -0.01 K; in that of `NC(=O)C1CCN(c2nc(-c3cccnc3)nc3sc4c(c23)CCCC4)CC1`, 0.48 K.
Consider `CCCCC(=O)OCC(=O)NCCc1ccc(S(N)(=O)=O)cc1`, for which the “TSA(with NAD+) / Primary screening (TSA) / delta Tm (K)” value is on record as -0.02 K.
Consider `Cc1cc(C=C2C(=O)NC(=S)NC2=O)c(C)n1-c1cccc(F)c1`, for which the “TSA(with NAD+) / Primary screening (TSA) / delta Tm (K)” value is on record as -0.46 K.
For the molecule `COc1cccc(C=C2C(=O)NC(=S)NC2=O)c1`, the “TSA(with NAD+) / Primary screening (TSA) / delta Tm (K)” value is on record as -0.01 K.
In the case of `CC(=O)c1cccc(NC(=O)C(C)OC(=O)c2ccc(OCC(=O)N3C(C)CCCC3C)cc2)c1` (centres unmarked) it was 0.15 K; in that of `Cc1cc(C)nc(SCc2ccccc2C(=O)N2CCN(CC(=O)Nc3cccc(F)c3)CC2)n1`, -0.04 K; in that of `CC(=O)Nc1ccc(CC(=O)NCC(c2ccccc2)N(C)C)cc1` (centres unmarked), 0.06 K.
To `CC1CCc2ccccc2N1C(=O)CSc1n[nH]c2nc3ccccc3n12` (centres unmarked) belongs -0.06 K.
For `Oc1ccc2ccccc2c1/C=N/c1ccc(F)c(F)c1`, the “TSA(with NAD+) / Primary screening (TSA) / delta Tm (K)” value is recorded as -0.06 K.
In the case of `CC(NC(=O)c1occc1-c1ccc(F)cc1)c1ccc2c(c1)CCC(=O)N2` (centres unmarked) it was -0.11 K; in that of `Cc1cc(C)c2cc(C(=O)N3CCC(C(N)=O)CC3)[nH]c2c1`, -0.33 K; in that of `Cc1nn2cccnc2c1C(=O)NCC1CC12CCc1ccccc12` (centres unmarked), -0.18 K.
Take `CN(C)S(=O)(=O)c1ccc(C(=O)C2=C(O)C(=O)N(CCN3CCOCC3)C2c2ccco2)cc1` (centres unmarked): the “TSA(with NAD+) / Primary screening (TSA) / delta Tm (K)” value was -0.23 K.
Take `O=C(c1ccc2[nH]c3c(c2c1)CCCC3)N1CC1`: the “TSA(with NAD+) / Primary screening (TSA) / delta Tm (K)” value is on record as -0.18 K.
In the case of `CCN(C(=O)CSc1nnc(SCc2ccc(Cl)cc2)s1)C1CCS(=O)(=O)C1` (centres unmarked) it was -0.01 K; in that of `O=C(O)CCCNc1ncnc2sc3c(c12)CCCC3`, -0.22 K.
To `COc1c(C=C2C(=O)NC(=S)NC2=O)ccc2ccccc12` belongs -0.33 K; to `Cc1cc(NN)n2nc(C(F)(F)F)c(-c3ccc(Cl)cc3)c2n1`, 0.37 K; to `O=C(CCc1ccc2c(c1)OCO2)N1CCc2[nH]c3ccccc3c2C1`, -0.01 K.
Turning to `CCN(C(=O)CSc1nnc(-c2ccc3c(c2)OCO3)o1)C1CCS(=O)(=O)C1` (centres unmarked), the “TSA(with NAD+) / Primary screening (TSA) / delta Tm (K)” value was 0.16 K.
To `C=CCCCN` belongs -0.13 K; to `COCC(O)CN` (centres unmarked), -0.12 K; to `CC(=O)Nc1cc2ccccc2cc1C(=O)NC1CCOc2ccccc21` (centres unmarked), -0.08 K.
`Cc1ccc(-c2nn(-c3ccccc3)cc2C(=O)NCc2nnc3ccccn23)cc1`: the “TSA(with NAD+) / Primary screening (TSA) / delta Tm (K)” value is -0.13 K.
To `OC1CCN(c2ncnc3c2oc2ccccc23)CC1` belongs -0.28 K.
In the case of `Cn1ccnc1C(NC(=O)Cc1ccc(F)cc1)c1ccccc1F` (centres unmarked) it was -0.05 K.
Consider `C[C@@H]1C[C@H]1N`, for which the “TSA(with NAD+) / Primary screening (TSA) / delta Tm (K)” value is on record as -0.03 K.
In the case of `O=C(CC12CC3CC(CC(O)(C3)C1)C2)Nc1cccc2c1CCCC2` it was -0.01 K.
In the case of `CC1CN(S(=O)(=O)CCNC(=O)Nc2cc3c(cc2Cl)OCCO3)CC(C)O1` (centres unmarked) it was -0.12 K; in that of `COc1ccc(N(C)S(=O)(=O)c2cccc(C(=O)OCc3cc(=O)oc4cc(C)ccc34)c2)cc1`, -0.01 K; in that of `CNC(=O)CSc1nnc(-c2c[nH]c3ccccc23)n1Cc1ccco1`, 0.05 K.
Take `O=C(NCc1ccc(S(=O)(=O)N2CCOCC2)s1)C1=COCCO1`: the “TSA(with NAD+) / Primary screening (TSA) / delta Tm (K)” value was determined as 0.07 K.
In the case of `Cc1nc(C(=O)Nc2ccc(-c3cn4ccsc4n3)cc2)cs1` it was -0.11 K.
In the case of `O=C1NC(=O)c2ccccc2/C1=C\NCCCN1CCc2ccccc21` it was -0.19 K.
`CCNC(=O)c1ccc2[nH]c(C)c(C)c2c1`: the “TSA(with NAD+) / Primary screening (TSA) / delta Tm (K)” value stood at 0.06 K.
To `Cc1ccc(F)cc1C(=O)OCc1nc(C(C)C)ns1` belongs -0.21 K.
To `Cc1ccc(N(C)S(=O)(=O)c2cccc(C(=O)Nc3cccc(C(=O)NC4CC4)c3)c2)cc1` belongs -0.03 K; to `COC(=O)CCNc1ncnc2ccsc12`, -0.19 K; to `O=C(Nc1ccc(N2CCN(Cc3ccccc3)CC2)cc1)c1cccc2cccnc12`, 0.01 K.
To `Cc1ccc(-c2nc(COC(=O)CN3C(=O)c4ccccc4C3=O)cs2)cc1` belongs -0.13 K; to `O=C(NC(c1ccccc1)c1ccccc1)c1ccc2ccccc2c1`, -0.12 K.
For `CC(=O)NCCCN`, the “TSA(with NAD+) / Primary screening (TSA) / delta Tm (K)” value worked out at 0.06 K.
As to `CCOC(=O)c1ccc(S(=O)(=O)N2CCC(C(=O)OCC(=O)NCC34CC5CC(CC(C5)C3)C4)CC2)cc1`, the “TSA(with NAD+) / Primary screening (TSA) / delta Tm (K)” value is given as 0.01 K.
In the case of `NCCCC[C@H](N)C(=O)O` it was -0.28 K; in that of `CC1CCCCN1c1ncnc2c1cnn2-c1ccccc1` (centres unmarked), 0.19 K.
As to `O=C(CN1CCCC1=O)Nc1cc(Br)c(F)cc1F`, the “TSA(with NAD+) / Primary screening (TSA) / delta Tm (K)” value is -0.13 K.
As to `CC(OC(=O)c1cc2c(s1)CCCC2)C(=O)Nc1ccc(C(N)=O)cc1` (centres unmarked), the “TSA(with NAD+) / Primary screening (TSA) / delta Tm (K)” value was found to be 0.01 K.
To `Cc1cccc(NC(=O)COc2ccc3c4c(c(=O)oc3c2)CCC4)c1` belongs 0.06 K; to `COc1ccc(CNC(=O)C(C)OC(=O)c2cc(S(=O)(=O)NC34CC5CC(CC(C5)C3)C4)ccc2Cl)cc1` (centres unmarked), -0.11 K.
To `Cc1onc(-c2ccc(F)cc2)c1C(=O)N1CCN(S(=O)(=O)c2ccc3c(c2)CCC3)CC1` belongs -0.09 K; to `CC(CN)S(C)=O` (centres unmarked), -0.28 K; to `COc1ccc(NC(C)c2ccc(S(C)=O)cc2)cn1` (centres unmarked), -0.11 K.
In the case of `O=C(/C=C/c1ccc(F)cc1)NCCCn1ccc2ccccc21` it was 0.02 K; in that of `Cc1ccc(NC(=O)CCC2CCCO2)cc1I` (centres unmarked), -0.15 K.
For `O=C(CCCc1nc2ccccc2c(=O)[nH]1)N1CC2CC3CC(C2)CC1C3`, the “TSA(with NAD+) / Primary screening (TSA) / delta Tm (K)” value is given as -0.01 K.
In the case of `CCCCc1ccc(/N=C/c2ccc3ncccc3c2)cc1` it was 0.06 K; in that of `COc1ccc(C2C(C(=O)c3ccco3)=C(O)C(=O)N2CCCN2CCOCC2)cc1` (centres unmarked), -0.04 K; in that of `O=c1cc(-c2ccccc2)c2ccc(OCCOc3ccc(Br)cc3)cc2o1`, -0.01 K.
To `Cc1noc2ncc(NC(=O)c3c[nH]nc3-c3ccccc3F)cc12` belongs -0.08 K.
To `CN1C(=O)N(CC(=O)O)C(=O)C12CCCCC2` belongs -0.06 K; to `CN(C)/C=N/c1ncnc2c1cnn2-c1ccccc1`, -0.03 K; to `Cc1ccc(C(=O)N2CCC(C(=O)Nc3ccccc3)CC2)cc1S(=O)(=O)NCc1ccccc1`, 0.03 K.
As for `NC(=O)c1cc(NC(=O)CN2CCN(c3ccccc3O)CC2)cc(C(N)=O)c1`, the “TSA(with NAD+) / Primary screening (TSA) / delta Tm (K)” value was -0.09 K.
To `N#CC(C(=O)c1ccc(NS(=O)(=O)c2ccccc2)cc1)c1nc(-c2ccccn2)cs1` (centres unmarked) belongs 0.47 K; to `O=C([O-])COCCO`, -0.12 K; to `NC(=O)C1CCN(C(=O)/C=C/c2ccc(-c3ccccc3F)o2)C1` (centres unmarked), -0.18 K.
Regarding `COc1ccc(C2C(C(=O)c3ccc(OC)c(OC)c3)=C(O)C(=O)N2CCCN2CCOCC2)cc1` (centres unmarked), the “TSA(with NAD+) / Primary screening (TSA) / delta Tm (K)” value is -0.01 K.
To `CCOC(=O)CN(Cc1ccccc1)Cc1cc(=O)c(OC)co1` belongs 0.01 K.
To `CC(C)(N)CCN` belongs -0.03 K; to `CC(=O)c1cc(Cl)ccc1OCc1cc(=O)n2ccccc2n1`, -0.01 K; to `CN(C(=O)CSc1ncnc2c1cnn2C)C1CCCc2ccccc21` (centres unmarked), -0.23 K.
For the molecule `Cc1ccc(CCNC(=O)CNC(=O)c2cc3ccccc3[nH]2)cn1`, the “TSA(with NAD+) / Primary screening (TSA) / delta Tm (K)” value turned out to be 0.11 K.
Regarding `O=c1c2ccccc2n2c(SCc3nnc(-c4cccs4)o3)nnc2n1-c1ccccc1`, the “TSA(with NAD+) / Primary screening (TSA) / delta Tm (K)” value is listed as -0.11 K.
Turning to `Cc1ccc(C23CC4CC(CC(C(=O)OCC(=O)Nc5ccc6c(c5)OCO6)(C4)C2)C3)cc1`, the “TSA(with NAD+) / Primary screening (TSA) / delta Tm (K)” value is listed as 0.27 K.
